Measured data: PubChem BioAssay AID1224830 (NIAID, 2016)
Here is one part, drawn at random, of about 18,000 reagents tested. In the full data, about 2,900 (16%) are marked active. 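Calls are made per well; low scores hint the gene aids the LPS response, high scores that it dampens it.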 Repeated entries: four replicate wells of each siRNA pool.

Purpose: 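Regulators of TLR4 signalling towards TNF-alpha in macrophage-like cells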 (primary screen)
System: human THP-1 monocytic leukaemia cells, TNF dual-luciferase reporter clone, PMA-differentiated to macrophage-like cells
Reagents: siRNA pool against human genes, 50 nM
Time to read-out: LPS for 4 h, given about 3 days after siRNA transfection
Challenge: bacterial LPS (TLR4 ligand), 10 ng/ml
Measurement: 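Ratio of firefly to renilla light, scaled to the plate median and expressed as a robust z-score per replicate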
Scale: TNF reporter robust z-score: higher = stronger TNF reporter response to LPS
Hit rule: 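a well is active when its z-score exceeds 2.8 or falls below -1.5; control wells carry no call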

no.	gene	TNF reporter robust z-score	call
1	MED4	-0.49	inactive
2	MED4	-0.41	inactive
3	MED4	-0.66	inactive
4	MED4	-0.5	inactive
5	GEMIN5	-0.5	inactive
6	GEMIN5	1.14	inactive
7	GEMIN5	-0.09	inactive
8	GEMIN5	0.58	inactive
9	CDS1	0.4	inactive
10	CDS1	1.1	inactive
11	CDS1	0.34	inactive
12	CDS1	0.81	inactive
13	ZNF613	0.74	inactive
14	ZNF613	-0.84	inactive
15	ZNF613	-0.56	inactive
16	ZNF613	-0.59	inactive
17	LCA5	-0.09	inactive
18	LCA5	-0.69	inactive
19	LCA5	0.22	inactive
20	LCA5	-0.75	inactive
21	TPR	2.65	inactive
22	TPR	1.4	inactive
23	TPR	0.41	inactive
24	TPR	2.27	inactive
25	SEC11A	0.39	inactive
26	SEC11A	-0.33	inactive
27	SEC11A	-0.86	inactive
28	SEC11A	0.43	inactive
29	MOGS	0.44	inactive
30	MOGS	1.08	inactive
31	MOGS	-0.63	inactive
32	MOGS	-0.16	inactive
33	PLAC1	0.52	inactive
34	PLAC1	-0.33	inactive
35	PLAC1	0.33	inactive
36	PLAC1	-0.32	inactive
37	TIMD4	0.14	inactive
38	TIMD4	0.84	inactive
39	TIMD4	0.89	inactive
40	TIMD4	0.95	inactive

The list goes on.
no.	gene	TNF reporter robust z-score	call
41	HES1	0.56	inactive
42	HES1	-0.64	inactive
43	HES1	-0.59	inactive
44	HES1	0.47	inactive
45	SRSF9	0.36	inactive
46	SRSF9	-0.3	inactive
47	SRSF9	-0.29	inactive
48	SRSF9	-0.08	inactive
49	RNF146	-1.43	inactive
50	RNF146	0.39	inactive
51	RNF146	-0.37	inactive
52	RNF146	1.77	inactive
53	DMRTC2	0.87	inactive
54	DMRTC2	1.31	inactive
55	DMRTC2	1.2	inactive
56	DMRTC2	1.46	inactive
57	TMEM209	0.38	inactive
58	TMEM209	0.41	inactive
59	TMEM209	0.97	inactive
60	TMEM209	0.78	inactive
61	EYS	-0.46	inactive
62	EYS	0.2	inactive
63	EYS	-0.5	inactive
64	EYS	0.19	inactive
65	MAFG	-1.89	active
66	MAFG	-2.41	active
67	MAFG	-1.61	active
68	RNF182	-1.43	inactive
69	RNF182	-0.94	inactive
70	RNF182	0.7	inactive
71	RNF182	0.01	inactive
72	AAK1	-1.68	active
73	AAK1	-1.72	active
74	AAK1	-1.87	active
75	AAK1	-1.26	inactive
76	GLYATL2	-0.09	inactive
77	GLYATL2	0.27	inactive
78	GLYATL2	0.8	inactive
79	GLYATL2	0.1	inactive
80	CT47A3	0.83	inactive
81	CT47A3	2.22	inactive
82	CT47A3	0.96	inactive
83	CT47A3	1.21	inactive
84	BUD31	-0.05	inactive
85	BUD31	0.02	inactive
86	BUD31	-0.84	inactive
87	BUD31	0.25	inactive
88	BCLAF3	2.32	inactive
89	BCLAF3	0.85	inactive
90	BCLAF3	-0.99	inactive
91	BCLAF3	-0.88	inactive
92	SERINC1	-1.1	inactive
93	SERINC1	-0.6	inactive
94	SERINC1	-1.07	inactive
95	SERINC1	-0.86	inactive
96	DGCR6	-0.36	inactive
97	DGCR6	-0.52	inactive
98	DGCR6	0.22	inactive
99	DGCR6	0.56	inactive
100	HDAC7	-0.72	inactive
101	HDAC7	-0.42	inactive
102	HDAC7	-0.47	inactive
103	HDAC7	-0.2	inactive
104	AP3B1	-1.4	inactive
105	AP3B1	-1.12	inactive
106	AP3B1	-0.65	inactive
107	AP3B1	0.57	inactive
108	ADAM19	-0.54	inactive
109	ADAM19	0.21	inactive
110	ADAM19	0.38	inactive
111	ADAM19	2.17	inactive
